Assay results taken from patent US20260166068A1, “COMPOSITION FOR PROMOTING DEVELOPMENT OF BRAIN FUNCTIONS IN CHILDREN” (Meiji Co., Ltd., priority 2022, published 2026).
At least one compound was matched to its structure with a doubt left.

Test system: brain function development of infants
Assay: Spearman correlation of NAD-related substance concentration in 1-month breast milk with ASQ-3 developmental scores at 24 months
Format: in vivo, human
Details: communication, p<0.05
Protocol: The method was specifically as follows.
Concentrations of NAD-related substances in 1-month breast milk ingested by 150 infants of 1 to 6 months old, who were fully breastfed, were determined by LC-MS/MS.
Development of the infants was assessed at the age of 24 months using ASQ (registered trademark)-3 (Japanese version of ASQ (registered trademark)-3 infant developmental screening questionnaires, Igaku Shoin, 2021). The relationship between the amount of each NAD-related substance ingested by the infants and their development was evaluated by using Spearman's rank-order correlation coefficient.

## NC(=O)c1ccc[n+]([C@@H]2O[C@H](COP(=O)([O-])OP(=O)(O)OC[C@H]3O[C@@H](n4cnc5c(N)ncnc54)[C@H](O)[C@@H]3O)[C@@H](O)[C@H]2O)c1 [NAD, nicotinamide adenine dinucleotide]
  Correlation of concentration in breast milk with developmental scores (in words): positive correlation
